From PubChem BioAssay AID493014 (National Center for Advancing Translational Sciences (NCATS), 2011)
This is one part of the list. The main result of the screen is listed elsewhere. These columns were measured beside it and carry no call. Compounds called inactive in the main read-out are mostly missing here. The note in brackets gives the kind of curve behind each potency; many fits are weak.

Assay: qHTS Assay to Find Inhibitors of Chronic Active B-Cell Receptor Signaling
Details: ABC-DLBCL IkBa-CBG/CBR reporter, luminescence ratio (green luciferase fused to IkBa over red control in TMD8 lymphoma cells), 4 h
Procedure, shortened: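 Doxycycline induced both beetle luciferases in TMD8 lymphoma cells; IKK-driven degradation limits the IkappaBalpha-fused green signal, while red luminescence normalises for cell number and nonspecific effects. Compounds tested up to 46 uM, 4 hrs.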

[1] = measured here: CBR red luminescence, cell number

SMILES | AC50 [1] | AC50 (measured here: IkBa-CBG green luminescence)
Cc1ccccc1CC(=O)N(CCN(C)C)CC1CCCN(Cc2ccccc2F)C1 (configuration not stated) | 35.5 µM [falling, single point] | –
Nc1ncnc2c1ncn2[C@@H]1O[C@H](COP(=O)(O)OP(=O)(O)OP(=O)(O)O)[C@@H](O)[C@H]1O | 2.59 µM [rising, full curve] | –
O=C(NCc1ccccc1)Nc1cccn(Cc2ccccc2Cl)c1=O | 31.6 µM [falling, single point] | –
Cc1ccc(N(C)C(=O)Oc2ccc(C(=O)c3ccc(Cl)cc3)cc2)cc1 | 16.4 µM [rising, partial curve] | –
O=C1C2CCCN2C(c2cccnc2)N1c1cccc(Cl)c1 (configuration not stated) | 29.1 µM [falling, single point] | –
O=C(CCN1CCCCC1)Nc1ccc(Cl)cc1C(=O)c1ccccc1 | 6.31 µM [falling, partial curve, poor fit] | –
CN1C(=O)C(Cc2cccc3ccccc23)C(=O)N(C)C1=O | 0.259 µM [falling, full curve, poor fit] | –
O=[N+]([O-])c1cc(Cl)c(O)c(-[n+]2c(-c3ccccc3)cc(-c3ccccc3)cc2-c2ccccc2)c1 | 11.2 µM [falling, partial curve] | –
CCSc1nnc([C@@H](N)Cc2c[nH]c3ccccc23)o1 | 3.98 µM [rising, single point] | –
CCC(C)OC(=O)c1c(N)n(Cc2cccs2)c2nc3ccccc3nc12 (configuration not stated) | 1.3 µM [falling, partial curve, poor fit] | 3.26 µM [rising, partial curve, poor fit]
COc1ccc2c(c1)NP(=S)(Oc1ccccc1)N2 (configuration not stated) | 4.47 µM [rising, partial curve, poor fit] | –
CCN1CCN(CCCNC(=O)c2ccc3c(Cl)c4c(nc3c2)CCCC4)CC1 | 12.6 µM [falling, single point] | –
OC1C2CN3CN(C2)CC1(c1ccccc1)C3 (configuration not stated) | 35.5 µM [rising, single point] | –
COC(=O)C1=C(c2ccc(-c3ccccc3)c(F)c2)C[C@@H]2CC[C@H]1N2C(=O)N1CCC(C)CC1 | 3.26 µM [falling, partial curve, poor fit] | –
CCOC(=O)C1(CCc2ccccc2)CCN(Cc2cccc3c2OCO3)CC1 | 20 µM [rising, partial curve, poor fit] | –
CC12CC[C@H]3[C@@H](CCC4(O)C[C@H](O)CCC34/C=N/NC(=O)c3ccccc3[N+](=O)[O-])C1(O)CCC2C1=CC(=O)OC1 (some centres not stated) | 31.6 µM [rising, single point] | –

Some of these compounds in order of formula weight, rising.
SMILES | AC50 [1] | AC50 (measured here: IkBa-CBG green luminescence)
CCSc1nnc([C@@H](N)Cc2c[nH]c3ccccc23)o1 | 3.98 µM [rising, single point] | –
CCC(C)OC(=O)c1c(N)n(Cc2cccs2)c2nc3ccccc3nc12 (configuration not stated) | 1.3 µM [falling, partial curve, poor fit] | 3.26 µM [rising, partial curve, poor fit]
CC12CC[C@H]3[C@@H](CCC4(O)C[C@H](O)CCC34/C=N/NC(=O)c3ccccc3[N+](=O)[O-])C1(O)CCC2C1=CC(=O)OC1 (some centres not stated) | 31.6 µM [rising, single point] | –
